The test system of data set [1] is tongue. Put plainly: Comparative Example 1: comparison of taste of different vortioxetine salts (10 subjects, 30 attempts). The settings on record: powder equivalent to 5 mg of vortioxetine on the tongue for one minute; 30 attempts by 10 subjects. How it is done:
The vortioxetine lactate salt, vortioxetine hydrobromide and vortioxetine hemihydrobromide equivalent to 5 mg of vortioxetine respectively over 100 mesh powders were put directly in front of the upper part of the tongue for one minute. There were 10 subjects in each salt-type group, and each subject randomly tried each salt-type 3 times. After trying one salt-type taste, rinsed your mouth, and try another salt-type after there was no irritation. After trying the taste, record the bitterness level and tongue irritation, spit it out a few seconds later, rinse your mouth, record the time for the irritation to subside, eat 1-1.5 hours later, and record the irritation again.

In data set [2] the test system is tongue. In words: Comparative Example 2: comparison of taste of solid dispersion, hemihydrobromide powder and marketed drug product (20 subjects). It counts as in vivo, human. The settings on record: powder equivalent to 10 mg vortioxetine on the tongue for one minute. How it is done: The solid dispersion equivalent to 10 mg vortioxetine prepared in Example 9b, vortioxetine hemihydrobromide powder equivalent to 10 mg vortioxetine, and the powder compressed by vortioxetine hydrobromide marketed drug product equivalent to 10 mg of vortioxetine hydrobromide passed through 100 mesh sieve, then they were put directly in front of the upper part of the tongue for one minute. There were 20 subjects in each powder group. After trying one powder taste, rinsed your mouth, and try another powder after there was no irritation. After trying the taste, record the bitterness level and tongue irritation, spit it out a few seconds later, rinse your mouth, record the time for the irritation to subside, eat 1-1.5 hours later, and record the irritation again.

Some values come without a unit; they compare only within their column.

As for `Br.Cc1ccc(Sc2ccccc2N2CCNCC2)c(C)c1` [Monosalt hydrobromate], in the data set on tongue [1], the “Number of subjects who felt different levels of bitterness: Extremely bitter” value is on record as 28 times, the “Number of subjects who felt different levels of bitterness: Not bitter” value turned out to be 0 times and the “Number of subjects who felt different levels of bitterness: Slightly bitter” value was found to be 2 times.

With `CC(O)C(=O)O.Cc1ccc(Sc2ccccc2N2CCNCC2)c(C)c1` [lactate salt], in the data set with tongue [1], the “Number of subjects who felt different levels of bitterness: Extremely bitter” value amounted to 29 times, the “Number of subjects who felt different levels of bitterness: Not bitter” value is 0 times and the “Number of subjects who felt different levels of bitterness: Slightly bitter” value is recorded as 1 times.

With `Br.Cc1ccc(Sc2ccccc2N2CCNCC2)c(C)c1.Cc1ccc(Sc2ccccc2N2CCNCC2)c(C)c1` [hemihydrobromide], in the data set on tongue [1], the “Number of subjects who felt different levels of bitterness: Extremely bitter” value came to 12 times, the “Number of subjects who felt different levels of bitterness: Not bitter” value came out at 0 times and the “Number of subjects who felt different levels of bitterness: Slightly bitter” value is 18 times.

Consider `Br.Cc1ccc(Sc2ccccc2N2CCNCC2)c(C)c1.Cc1ccc(Sc2ccccc2N2CCNCC2)c(C)c1` [Vortioxetine hemihydrobromide powder], for which, in the data set with tongue [2], the “Number of subjects who felt different levels of bitterness: Extremely bitter” value was 9, the “Number of subjects who felt different levels of bitterness: Not bitter” value is recorded as 0 and the “Number of subjects who felt different levels of bitterness: Slightly bitter” value amounted to 11.

For the origin of these results see patent US12642797B2, “Coated granule, solid dispersion, and preparation containing vortioxetine hydrobromide for oral taste masking” (Seasons Biotechnology (Taizhou) Co., Ltd., priority 2019, dated 2026).
